# Laboratory results: PubChem BioAssay AID1259290 (Sanger Institute, 2017)
# Assay: 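siRNA screen across the kinome seeking synthetic lethal partners for BYL719, cetuximab or trametinib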 (primary screen)
# System: human SNUC1 colorectal cancer cells
# Reagents: siRNA pool against human genes
# Treatment: anchor drugs BYL719 1 µM, cetuximab 5 µg/ml or trametinib 10 nM, or DMSO vehicle alone
# Measurement: 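Viability averaged over replicates and scaled to non-targeting siRNA, robust z-score with no drug, and synergy scores by drug for BYL719, cetuximab and trametinib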
# Scale: viability z-score, siRNA alone: higher = more viable cells; low values mean essential gene
# Active means: 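a knock-down without drug scoring a robust z under -3 counts as essential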
# Calls: active = essential: knock-down alone cut viability (z below -3); inactive = no clear viability loss with knock-down alone
# The whole screen tested 794 reagents; shown is a part drawn at random. 9 of all reagents (1.1%) count as active. 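Calls rest on knock-down alone, not drug synergy; synergy above 0.15 was grouped apart and does not affect calls.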 Further read-outs or replicates are left out here. The record does not give: the amount of reagent, the time to read-out.
gene,"viability z-score, siRNA alone",outcome
NME3,-1.91,inactive
DGKI,-1.33,inactive
MAP2K1,-1.27,inactive
EIF2AK2,0.452,inactive
MARK2,-0.481,inactive
MAPK14,-0.291,inactive
GNE,-0.365,inactive
DCLK2,0.494,inactive
MPP3,0.936,inactive
RFK,0.936,inactive
MAP3K20,0.13,inactive
ROCK1,0.285,inactive
UHMK1,-1.56,inactive
GK,-0.643,inactive
NUP107,-2.81,inactive
KALRN,-1.1,inactive
BRD3,0.936,inactive
LMTK3,0.0885,inactive
PDPK1,0.767,inactive
ETNK2,-0.472,inactive

Records listed so far whose gene name begins with M or m (5):
gene,"viability z-score, siRNA alone",outcome
MAP2K1,-1.27,inactive
MARK2,-0.481,inactive
MAPK14,-0.291,inactive
MPP3,0.936,inactive
MAP3K20,0.13,inactive
